Paper PMC10412619
These are yes or no findings as the source states them, for the method shown. Binding seen in cells or lysates may run through a third protein. Some binding calls cover weakened binding; strength is not graded here.

The chains behind the UniProt entries cited, without tags or fusion partners.
UniProt P98170: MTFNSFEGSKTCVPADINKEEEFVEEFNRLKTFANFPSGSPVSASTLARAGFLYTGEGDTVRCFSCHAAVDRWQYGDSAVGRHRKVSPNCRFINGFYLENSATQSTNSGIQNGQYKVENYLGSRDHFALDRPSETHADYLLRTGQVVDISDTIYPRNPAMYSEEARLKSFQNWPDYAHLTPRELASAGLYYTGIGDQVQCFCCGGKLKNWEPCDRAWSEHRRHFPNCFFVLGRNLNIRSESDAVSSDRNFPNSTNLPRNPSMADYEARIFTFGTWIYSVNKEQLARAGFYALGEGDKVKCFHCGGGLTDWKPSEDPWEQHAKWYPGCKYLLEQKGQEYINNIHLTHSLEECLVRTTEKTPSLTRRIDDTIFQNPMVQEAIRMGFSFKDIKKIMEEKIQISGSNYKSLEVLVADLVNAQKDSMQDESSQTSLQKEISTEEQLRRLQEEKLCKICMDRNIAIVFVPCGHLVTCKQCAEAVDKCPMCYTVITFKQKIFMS
UniProt Q06609: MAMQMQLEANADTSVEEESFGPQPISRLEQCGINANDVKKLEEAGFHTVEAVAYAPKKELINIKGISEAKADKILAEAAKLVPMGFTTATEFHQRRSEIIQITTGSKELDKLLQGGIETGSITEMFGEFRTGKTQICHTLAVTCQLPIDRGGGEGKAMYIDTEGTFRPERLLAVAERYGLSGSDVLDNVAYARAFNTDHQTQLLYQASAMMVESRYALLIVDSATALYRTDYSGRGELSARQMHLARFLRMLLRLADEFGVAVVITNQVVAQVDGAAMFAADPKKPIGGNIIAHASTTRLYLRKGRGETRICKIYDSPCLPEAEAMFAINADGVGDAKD

Experiments:
[1] = biological target: X-linked inhibitor of apoptosis (XIAP) (human (endogenous in TE-1)) (UniProt P98170); assay: co-IP; whole cell lysate from TE-1 cells, RIPA lysis buffer, primary antibody overnight at 4 °C, protein A + G agarose
[2] = biological target: X-linked inhibitor of apoptosis (XIAP) (human (endogenous in TE-1)) (UniProt P98170); assay: co-IP; XIAP and RAD51 complexes immunoprecipitated from POLI-expressing and POLI-deficient ESCC cells
[3] = biological target: T1, DNA polymerase iota (POLI) (human (endogenous in TE-1)) (UniProt Q9UNA4); assay: co-IP; whole cell lysate from TE-1 cells, RIPA lysis buffer, primary antibody overnight at 4 °C, protein A + G agarose
T1 sequence: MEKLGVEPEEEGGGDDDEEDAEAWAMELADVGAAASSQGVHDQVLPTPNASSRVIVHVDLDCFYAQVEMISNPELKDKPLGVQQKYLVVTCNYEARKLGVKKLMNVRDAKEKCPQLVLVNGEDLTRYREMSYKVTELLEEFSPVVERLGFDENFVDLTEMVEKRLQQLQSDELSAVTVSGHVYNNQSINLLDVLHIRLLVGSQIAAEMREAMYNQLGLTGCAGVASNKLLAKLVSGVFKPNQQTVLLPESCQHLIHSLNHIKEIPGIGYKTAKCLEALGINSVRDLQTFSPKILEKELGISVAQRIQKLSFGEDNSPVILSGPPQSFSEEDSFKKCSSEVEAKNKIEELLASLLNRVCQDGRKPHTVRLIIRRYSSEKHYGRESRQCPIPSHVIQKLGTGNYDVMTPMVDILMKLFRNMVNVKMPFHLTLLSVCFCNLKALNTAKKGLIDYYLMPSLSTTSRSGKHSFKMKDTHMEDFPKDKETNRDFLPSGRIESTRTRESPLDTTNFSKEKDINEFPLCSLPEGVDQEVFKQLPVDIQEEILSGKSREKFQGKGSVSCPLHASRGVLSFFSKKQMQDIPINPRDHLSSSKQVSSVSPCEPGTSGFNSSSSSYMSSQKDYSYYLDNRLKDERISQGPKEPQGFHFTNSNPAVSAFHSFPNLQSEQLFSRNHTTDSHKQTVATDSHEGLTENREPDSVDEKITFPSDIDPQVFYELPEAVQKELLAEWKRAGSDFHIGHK

Substance	binding [1]	binding [2]	binding [3]
RAD51 (from UniProt Q06609 1-339)	binds	binds	
X-linked inhibitor of apoptosis (XIAP) (from UniProt P98170 1-497)			binds
